Some of the results follow.
Target: OsWRKY34 (Oryza sativa, UniProt Q0JBA9 1-250)
Assay: protein-binding microarray (RPBM); PBS, 2% BSA, 51.3 ng/ul salmon testes DNA, 50 uM zinc acetate, 200 nM TF, 25 C, 1 h; high values mean tight binding
Conditions: protein: recombinant; tags: N-terminal polyhistidine and DsRed monomer fusion (pET32a); label: CyDye5-dUTP incorporated in the synthesized complementary strand; 3' TTTTT single-stranded linker to array surface; dsDNA, one strand shown
In short: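 A custom Agilent array was converted to double-stranded form by primer extension with Cy5-dUTP and blocked with 2% BSA. Protein at 200 nM in PBS with 2% BSA, salmon testes DNA and 50 µM zinc acetate was applied for 1 h at 25 °C, followed by washing. The proteins were polyhistidine–DsRed N-terminal fusions of transcription factors, expressed in E. coli BL21-CodonPlus and Ni–NTA-purified. The binding signal is per-feature fluorescence intensity (arbitrary units) from an Axon 4000B scanner.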

Sequences of proteins named here, by UniProt entry; tags and fusion partners are left off.
UniProt Q0JBA9, entry or part of it: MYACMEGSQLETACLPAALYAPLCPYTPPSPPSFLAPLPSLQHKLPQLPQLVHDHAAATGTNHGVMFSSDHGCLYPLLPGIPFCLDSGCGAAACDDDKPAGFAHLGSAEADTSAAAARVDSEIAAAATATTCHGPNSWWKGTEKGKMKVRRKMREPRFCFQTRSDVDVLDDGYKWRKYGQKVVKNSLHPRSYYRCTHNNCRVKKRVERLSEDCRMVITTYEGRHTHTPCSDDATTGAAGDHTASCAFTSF

| Sequence | binding signal |
| --- | --- |
| CCGATCTGCTCCACCGCCACCGGCGCTCCGGGCGGACGGCCGGAGTCACCTAGTGCAG | 8220 fluorescence intensity (a.u.) |
| GTTCGAAAAGTCGTGGGTTGTTCTTGACTTCTTGCCAGTGCGGAGTCACCTAGTGCAG | 9060 fluorescence intensity (a.u.) |
| CGCTGTTGACTTTTTTAAAAATGTTTGACCGTTCATCTTACGGAGTCACCTAGTGCAG | 33600 fluorescence intensity (a.u.) |
| GCATCTCCACAGTCCACACTGTGCGCGCCATTCTTATCCTCGGAGTCACCTAGTGCAG | 14100 fluorescence intensity (a.u.) |
| AAATGACTTTCTCGTCTTATGCTGACTTCATCTTCATTTTCGGAGTCACCTAGTGCAG | 10300 fluorescence intensity (a.u.) |
| TTTTCTCTTGCTGGTCTCCGTCTTCGTCTTCTCCTCCTCCCGGAGTCACCTAGTGCAG | 8550 fluorescence intensity (a.u.) |
| TCATCTCAGTACTACTCATCTCTATTGGCTGTTTTCGACACGGAGTCACCTAGTGCAG | 9400 fluorescence intensity (a.u.) |
| GAGTTTAATTTTTTTTTTGTGGTTGGTTGTATCGTGATACCGGAGTCACCTAGTGCAG | 10100 fluorescence intensity (a.u.) |
| CTGTCCTGTCCGGCCCCTGGTTTTTGCTGCTGACTTATATCGGAGTCACCTAGTGCAG | 11600 fluorescence intensity (a.u.) |
| GCCTGGGTCTCATAACGATATCAATGTACTTCATCGATGCCGGAGTCACCTAGTGCAG | 8860 fluorescence intensity (a.u.) |
| TTGGTTCGTGTCGTTCGCGCGCTTTCTCTCTCTCTCTCCTCGGAGTCACCTAGTGCAG | 14500 fluorescence intensity (a.u.) |
| GAATATTCGGGTGTGTGTGTCTCCAGCAGTAGTTCTTCTCCGGAGTCACCTAGTGCAG | 11300 fluorescence intensity (a.u.) |
| CTGTTCATTCTCCGGTAGCCATTTGTCCGTAGCACATAAACGGAGTCACCTAGTGCAG | 12600 fluorescence intensity (a.u.) |
| TCTGTTTCGCACTTGTATTTCAATAATGTGTTTTTTCTATCGGAGTCACCTAGTGCAG | 8350 fluorescence intensity (a.u.) |
| AATCACCACTTCATCAGCACCAGACACCAAACTGCCAAATCGGAGTCACCTAGTGCAG | 8510 fluorescence intensity (a.u.) |
| TTATCCTTCGAGCACATATATAATCCGCACGCCGCCGCCTCGGAGTCACCTAGTGCAG | 9940 fluorescence intensity (a.u.) |
| CCTTATTTTTAATTCCGAATTTCAGCTATTTTTAAATTATCGGAGTCACCTAGTGCAG | 8700 fluorescence intensity (a.u.) |
| CCACCCTATATCACTCGAGTACTTGCCCATCAAATATATTCGGAGTCACCTAGTGCAG | 9350 fluorescence intensity (a.u.) |
| TGTGGTGGTGGTGGGAGGCAGCCGCGGCTGCTGCTGATGCCGGAGTCACCTAGTGCAG | 13200 fluorescence intensity (a.u.) |
| CCCTCATCACACCTGCCCGCCAATCTACAACAATGCACACCGGAGTCACCTAGTGCAG | 9470 fluorescence intensity (a.u.) |
| TTGTTGTAGTATTTTATTTGTATTTTCACATTTTTAGGGACGGAGTCACCTAGTGCAG | 9260 fluorescence intensity (a.u.) |
| TAAGTATTACTCTATTCGTTATACTATAGTATTATACTATCGGAGTCACCTAGTGCAG | 8250 fluorescence intensity (a.u.) |
| AGCGGTGTGAGGTGTTGGCACTTGGTCTGGGGCTCGGGGACGGAGTCACCTAGTGCAG | 8910 fluorescence intensity (a.u.) |
| AAACGTCCAAATCACACTCATCCTTCCATACTGTATAAATCGGAGTCACCTAGTGCAG | 8480 fluorescence intensity (a.u.) |
| CTGCGCCGATCCCCATCCATCCATTGCGCGAGCGGGCGGGCGGAGTCACCTAGTGCAG | 8520 fluorescence intensity (a.u.) |
| TGTGCGCGGATAACTTACTCAGTACTTTCATGTCATAATTCGGAGTCACCTAGTGCAG | 9480 fluorescence intensity (a.u.) |
| GCTGAGCTGATTGCTTGATTCCTCGCTCGTTCAATCTACTCGGAGTCACCTAGTGCAG | 9730 fluorescence intensity (a.u.) |

A run of entries from further up, for reference:

| Sequence | binding signal |
| --- | --- |
| TGTGGTGGTGGTGGGAGGCAGCCGCGGCTGCTGCTGATGCCGGAGTCACCTAGTGCAG | 13200 fluorescence intensity (a.u.) |
| CCCTCATCACACCTGCCCGCCAATCTACAACAATGCACACCGGAGTCACCTAGTGCAG | 9470 fluorescence intensity (a.u.) |
| TTGTTGTAGTATTTTATTTGTATTTTCACATTTTTAGGGACGGAGTCACCTAGTGCAG | 9260 fluorescence intensity (a.u.) |
| TAAGTATTACTCTATTCGTTATACTATAGTATTATACTATCGGAGTCACCTAGTGCAG | 8250 fluorescence intensity (a.u.) |

Continuation:

| Sequence | binding signal |
| --- | --- |
| CCATACCAACCCATACTCTTTTTATTAGACACGTCGTATTCGGAGTCACCTAGTGCAG | 9090 fluorescence intensity (a.u.) |
| CTCACCGTACACTCCACCGCAGCTCGGTCATCCTTAGTCGCGGAGTCACCTAGTGCAG | 12700 fluorescence intensity (a.u.) |
| GATAGGTCTCGTTAATTGTTTCACTTCCGCCGATCCTTATCGGAGTCACCTAGTGCAG | 10900 fluorescence intensity (a.u.) |
| TTTTTTTCTTAGATTTGTACACTACTTTATGTCTCACACTCGGAGTCACCTAGTGCAG | 9520 fluorescence intensity (a.u.) |
| AGCGAGCGACGGGCGGGGCGGAGCGGGGCGGGGCTGCATTCGGAGTCACCTAGTGCAG | 16700 fluorescence intensity (a.u.) |
| AATTCTTTTTCTTCCGTTTGAAAACTTTACTACACATGCACGGAGTCACCTAGTGCAG | 9480 fluorescence intensity (a.u.) |
| CTCCACCGCCCGCCCGCCCGCTGCACGCTCGCGGCCGCTCCGGAGTCACCTAGTGCAG | 10000 fluorescence intensity (a.u.) |
| GTGGGTGGGCCGAATCCTTTTGTAAGAGGAGATCAGTAAGCGGAGTCACCTAGTGCAG | 10100 fluorescence intensity (a.u.) |
| TTACAAGATGCGGTGAAGAGGTGGGTATTTGTCCAGAAGCCGGAGTCACCTAGTGCAG | 8770 fluorescence intensity (a.u.) |
| GATAATATGGTCTCTAATCATTAATGTATCTAAATATTTTCGGAGTCACCTAGTGCAG | 9730 fluorescence intensity (a.u.) |
| CGCTCGGCGGTGAGGTGGAGGTGGAGGTGGGTGGGAGATGCGGAGTCACCTAGTGCAG | 12900 fluorescence intensity (a.u.) |
| TAGTAATGTTCCGCTAGTTTCTCTCTCTTAGAGCGCATGTCGGAGTCACCTAGTGCAG | 9040 fluorescence intensity (a.u.) |
| GCCGGCTGCCCCATCCGCTTCCTCTCTTTTATTTTCTCATCGGAGTCACCTAGTGCAG | 8330 fluorescence intensity (a.u.) |
| CCTCTTCTCTTGCGTCCCATTATCACCTCTCCACGCCGATCGGAGTCACCTAGTGCAG | 8140 fluorescence intensity (a.u.) |
| TATTATCGCTCTTTTCTTTTTATTATTTTTTCATAAGTACCGGAGTCACCTAGTGCAG | 9630 fluorescence intensity (a.u.) |
| ACCAAATTTCATTAGCAAGCAGCTGTTCTGTCGCTTCCGTCGGAGTCACCTAGTGCAG | 8060 fluorescence intensity (a.u.) |
| CCTTACCGTACAAGGGAGGAGGAGGTGGTGGTGGTGGAGGCGGAGTCACCTAGTGCAG | 13000 fluorescence intensity (a.u.) |
| GAGTAGGATGGGGTTTGATTTTGGGGTTCGTGGGGTCGAGCGGAGTCACCTAGTGCAG | 17100 fluorescence intensity (a.u.) |
| GATATGATTCGTTTTTCTTTTTGTTTTTTGTCTGCAGGGGCGGAGTCACCTAGTGCAG | 12700 fluorescence intensity (a.u.) |
| TTTCTTTTCCCATTGACTTCGTGTGGTCGGGGAGGCGCGGCGGAGTCACCTAGTGCAG | 9830 fluorescence intensity (a.u.) |
| TAGTTTTCCTTGTGGGTTTGGGATCTCATCGAGGCGGCGGCGGAGTCACCTAGTGCAG | 8370 fluorescence intensity (a.u.) |
| TGTGTGCCGTGTGTTGCCTTGTCCGGGAAAGATGGAAATTCGGAGTCACCTAGTGCAG | 9040 fluorescence intensity (a.u.) |
| ATTCTTCATTCTTTTTGTGTGTGTTTCAGTGTGTTTGTTTCGGAGTCACCTAGTGCAG | 15800 fluorescence intensity (a.u.) |
| ATCTCTAGCTGCACATCGATCGATCATATCCACAATTTAACGGAGTCACCTAGTGCAG | 9520 fluorescence intensity (a.u.) |
| TTGTTTGCGCTATTTGACCACTTGTCTTATTAAAAAAATTCGGAGTCACCTAGTGCAG | 8030 fluorescence intensity (a.u.) |
| AACCCCGCATCCCATTCCCGCGGGCCTCTCGGCTGCTTCCCGGAGTCACCTAGTGCAG | 9070 fluorescence intensity (a.u.) |
| TTCATGGAGTCTACTACTCTACTCCCTCTATTTTCAAATACGGAGTCACCTAGTGCAG | 9010 fluorescence intensity (a.u.) |
